The assay has as its target Cynomolgus monkey PSCA (Cynomolgus monkey). As to the kind of experiment: FACS on 293T cells expressing Cynomolgus monkey PSCA, anti-hIgG-PE.

Here are results for one molecule from patent US20050221400A1.

These are yes or no findings as the source states them, for the method shown. Some binding calls cover weakened binding; strength is not graded here.

B1: Ha1-1.16 (antibody, V domains shown)
VH: QVQLQQSGPGLVKPSQTLSLTCAISGDSVSSNSAAWNWIRQSPSRGLEWLGRTYYRSKWYNGYAVSVKSRMTINPDTSKNQFSLQLNSVTPEDTAVYYCARERLGELYGMDVWGQGTTVTVSS
VL: QLTQSPDSLAVSLGERATINCKSSQNILYRSSKKNHLVWYQQKPGQPPKLLIYWASTRESGVPARFSGSGSGTDFTLTISTLQAEDVAVYYCQQYYSTPPTFGQGTRLEIKR
Turning to B1, the binding entry was “binds”.
